From paper PMC4974620

Biological target: T1, yeast H/KDEL receptor Erd2p (S. cerevisiae) (UniProt P18414)
T1 sequence: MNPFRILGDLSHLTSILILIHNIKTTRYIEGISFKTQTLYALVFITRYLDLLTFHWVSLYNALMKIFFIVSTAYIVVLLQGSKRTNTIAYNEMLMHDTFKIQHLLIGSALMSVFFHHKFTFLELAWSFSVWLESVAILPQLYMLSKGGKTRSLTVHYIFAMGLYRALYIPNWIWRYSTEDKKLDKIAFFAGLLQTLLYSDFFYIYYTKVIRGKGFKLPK
Experiment: depletion of toxin from the supernatant by spheroplasts (residual toxin activity on methylene blue agar); yeast spheroplasts (1 x 10^5 to 1 x 10^6 cells/ml; Δerd2, single copy ERD2 or multi copy pERD2) in McIlvaine buffer pH 4.7 with 0.8 M sorbitol, K28 toxin 1 μg/ml, 60 min at 4 °C; residual toxin activity in the cell free supernatant tested against the sensitive strain 192.2d

Yeast killer toxin K28 (complex)
binding: binds

These are yes or no findings as the source states them, for the method shown. Binding can be weak; no strength is given.
